According to the supplement of paper PMC12823440, “Inhibitors supercharge kinase turnover through native proteolytic circuits” (Nature, 2025):
Some of the results follow. The calls rarely recur for the same compound in another form.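 In K562 cells expressing nanoluciferase-fused kinases, luminescence was recorded at 4 h intervals between 2 and 18 h, normalized as percent of control with DMSO at 100% and a positive control at 0%. A significant (2 sigma) signal drop marks a time point as decreased. The authors' rule for a hit is not shown and takes in more than the number of time points.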

Chains of the proteins cited; added tags and fusions are not shown. Lines headed by an entry give the natural chain unless they say otherwise; changes in a name come on top.
UniProt P28482, whole entry: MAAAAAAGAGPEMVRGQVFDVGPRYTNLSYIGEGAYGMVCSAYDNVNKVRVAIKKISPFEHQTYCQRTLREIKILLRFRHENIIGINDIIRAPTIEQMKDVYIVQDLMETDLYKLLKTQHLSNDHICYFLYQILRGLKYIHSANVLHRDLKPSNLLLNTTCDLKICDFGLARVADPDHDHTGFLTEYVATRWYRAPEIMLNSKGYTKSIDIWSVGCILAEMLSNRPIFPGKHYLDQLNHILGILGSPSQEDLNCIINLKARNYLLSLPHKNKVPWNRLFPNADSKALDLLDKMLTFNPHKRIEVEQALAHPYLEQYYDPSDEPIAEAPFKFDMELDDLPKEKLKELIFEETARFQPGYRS
UniProt P31152, whole entry: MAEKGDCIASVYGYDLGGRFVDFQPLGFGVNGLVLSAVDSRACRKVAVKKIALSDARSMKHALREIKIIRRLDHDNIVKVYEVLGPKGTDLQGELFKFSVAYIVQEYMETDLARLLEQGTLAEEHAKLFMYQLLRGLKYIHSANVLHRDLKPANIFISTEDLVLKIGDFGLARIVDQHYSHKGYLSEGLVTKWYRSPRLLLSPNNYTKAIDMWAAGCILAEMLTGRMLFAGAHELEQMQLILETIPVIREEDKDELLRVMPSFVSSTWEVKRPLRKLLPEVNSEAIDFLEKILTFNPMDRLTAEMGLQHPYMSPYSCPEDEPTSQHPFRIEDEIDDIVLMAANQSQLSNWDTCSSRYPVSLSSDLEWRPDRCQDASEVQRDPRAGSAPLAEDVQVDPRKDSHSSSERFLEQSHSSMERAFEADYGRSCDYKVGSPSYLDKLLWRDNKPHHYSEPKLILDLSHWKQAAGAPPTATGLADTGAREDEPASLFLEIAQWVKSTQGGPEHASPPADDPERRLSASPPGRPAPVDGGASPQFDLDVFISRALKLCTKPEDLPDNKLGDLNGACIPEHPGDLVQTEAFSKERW
UniProt P49137, whole entry, looked up: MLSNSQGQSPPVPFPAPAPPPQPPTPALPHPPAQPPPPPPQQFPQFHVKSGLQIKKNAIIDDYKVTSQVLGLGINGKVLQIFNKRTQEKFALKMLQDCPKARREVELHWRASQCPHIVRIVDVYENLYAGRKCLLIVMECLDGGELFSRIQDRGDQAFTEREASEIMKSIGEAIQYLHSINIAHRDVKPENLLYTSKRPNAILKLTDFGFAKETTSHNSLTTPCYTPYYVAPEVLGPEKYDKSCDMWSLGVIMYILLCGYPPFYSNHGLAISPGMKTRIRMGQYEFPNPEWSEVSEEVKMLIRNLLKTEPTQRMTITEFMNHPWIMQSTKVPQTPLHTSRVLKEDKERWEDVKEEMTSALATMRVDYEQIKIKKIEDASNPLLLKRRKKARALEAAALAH
UniProt Q9BUB5: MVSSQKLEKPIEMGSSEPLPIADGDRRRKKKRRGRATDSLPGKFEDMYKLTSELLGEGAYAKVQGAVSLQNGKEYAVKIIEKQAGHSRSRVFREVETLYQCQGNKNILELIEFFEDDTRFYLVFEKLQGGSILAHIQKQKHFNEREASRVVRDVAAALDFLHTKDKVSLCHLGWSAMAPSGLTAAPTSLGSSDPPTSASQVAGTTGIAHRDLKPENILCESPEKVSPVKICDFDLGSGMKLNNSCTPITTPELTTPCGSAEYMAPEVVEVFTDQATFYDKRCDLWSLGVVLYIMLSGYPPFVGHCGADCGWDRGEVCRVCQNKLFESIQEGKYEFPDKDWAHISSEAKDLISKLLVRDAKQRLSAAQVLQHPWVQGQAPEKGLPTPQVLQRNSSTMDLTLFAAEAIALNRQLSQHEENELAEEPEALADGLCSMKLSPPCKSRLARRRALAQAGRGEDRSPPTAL
UniProt Q16620, whole entry, looked up: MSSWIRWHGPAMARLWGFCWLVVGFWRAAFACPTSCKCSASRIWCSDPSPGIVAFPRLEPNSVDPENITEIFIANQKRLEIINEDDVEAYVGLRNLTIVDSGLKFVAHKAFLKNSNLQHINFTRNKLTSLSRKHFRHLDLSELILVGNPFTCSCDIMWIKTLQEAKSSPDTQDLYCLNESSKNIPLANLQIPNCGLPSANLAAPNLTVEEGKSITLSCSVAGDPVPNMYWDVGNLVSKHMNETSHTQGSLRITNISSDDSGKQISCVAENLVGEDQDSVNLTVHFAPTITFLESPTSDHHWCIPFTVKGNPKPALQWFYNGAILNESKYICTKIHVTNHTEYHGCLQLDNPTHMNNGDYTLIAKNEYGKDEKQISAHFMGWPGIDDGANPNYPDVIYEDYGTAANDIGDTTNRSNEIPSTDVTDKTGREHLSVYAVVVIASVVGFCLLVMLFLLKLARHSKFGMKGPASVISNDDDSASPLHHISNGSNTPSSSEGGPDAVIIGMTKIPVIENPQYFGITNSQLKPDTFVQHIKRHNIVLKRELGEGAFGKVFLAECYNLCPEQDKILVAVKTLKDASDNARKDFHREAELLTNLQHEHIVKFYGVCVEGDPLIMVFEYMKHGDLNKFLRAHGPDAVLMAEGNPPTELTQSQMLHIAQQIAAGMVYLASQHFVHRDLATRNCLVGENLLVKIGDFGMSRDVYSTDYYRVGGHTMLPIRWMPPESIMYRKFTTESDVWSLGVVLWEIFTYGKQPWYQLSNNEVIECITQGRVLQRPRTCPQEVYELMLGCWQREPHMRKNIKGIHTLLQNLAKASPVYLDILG
UniProt Q16288, whole entry, looked up: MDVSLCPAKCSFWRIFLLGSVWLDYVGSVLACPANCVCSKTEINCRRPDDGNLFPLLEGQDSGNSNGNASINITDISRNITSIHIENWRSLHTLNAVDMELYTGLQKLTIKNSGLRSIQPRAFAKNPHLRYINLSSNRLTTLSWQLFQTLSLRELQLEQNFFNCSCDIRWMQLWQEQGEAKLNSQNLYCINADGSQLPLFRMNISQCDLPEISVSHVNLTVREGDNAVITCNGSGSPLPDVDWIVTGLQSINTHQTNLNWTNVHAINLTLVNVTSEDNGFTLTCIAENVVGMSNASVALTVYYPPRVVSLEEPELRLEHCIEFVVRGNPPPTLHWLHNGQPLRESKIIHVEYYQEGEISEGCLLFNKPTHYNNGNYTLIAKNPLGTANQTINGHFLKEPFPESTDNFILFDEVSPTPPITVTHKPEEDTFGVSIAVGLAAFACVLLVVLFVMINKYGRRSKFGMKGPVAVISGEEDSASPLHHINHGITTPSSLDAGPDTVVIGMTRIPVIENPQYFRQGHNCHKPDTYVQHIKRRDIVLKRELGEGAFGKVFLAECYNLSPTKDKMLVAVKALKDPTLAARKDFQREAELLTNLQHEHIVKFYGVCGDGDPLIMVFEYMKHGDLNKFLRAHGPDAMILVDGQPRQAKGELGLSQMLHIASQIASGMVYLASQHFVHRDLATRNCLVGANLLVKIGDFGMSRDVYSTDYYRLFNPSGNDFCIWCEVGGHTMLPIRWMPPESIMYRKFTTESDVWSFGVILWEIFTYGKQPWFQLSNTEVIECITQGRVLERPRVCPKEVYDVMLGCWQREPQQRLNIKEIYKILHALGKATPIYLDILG
UniProt O96013: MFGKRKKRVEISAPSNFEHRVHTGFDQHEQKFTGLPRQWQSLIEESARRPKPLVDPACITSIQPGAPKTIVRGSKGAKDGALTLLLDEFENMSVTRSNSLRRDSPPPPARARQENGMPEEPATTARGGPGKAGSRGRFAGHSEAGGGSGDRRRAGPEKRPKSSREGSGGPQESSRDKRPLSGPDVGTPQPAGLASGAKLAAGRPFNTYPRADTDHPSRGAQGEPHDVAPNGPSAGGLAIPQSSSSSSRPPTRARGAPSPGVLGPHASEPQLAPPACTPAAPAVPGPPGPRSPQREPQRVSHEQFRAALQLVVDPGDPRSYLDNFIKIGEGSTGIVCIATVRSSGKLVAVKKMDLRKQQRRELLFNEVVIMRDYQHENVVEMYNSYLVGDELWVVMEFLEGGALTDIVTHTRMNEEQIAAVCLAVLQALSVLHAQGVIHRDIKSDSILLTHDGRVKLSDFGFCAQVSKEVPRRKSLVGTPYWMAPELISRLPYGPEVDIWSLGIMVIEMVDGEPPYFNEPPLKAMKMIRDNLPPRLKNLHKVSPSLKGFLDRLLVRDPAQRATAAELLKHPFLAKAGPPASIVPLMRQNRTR
UniProt Q96KB5: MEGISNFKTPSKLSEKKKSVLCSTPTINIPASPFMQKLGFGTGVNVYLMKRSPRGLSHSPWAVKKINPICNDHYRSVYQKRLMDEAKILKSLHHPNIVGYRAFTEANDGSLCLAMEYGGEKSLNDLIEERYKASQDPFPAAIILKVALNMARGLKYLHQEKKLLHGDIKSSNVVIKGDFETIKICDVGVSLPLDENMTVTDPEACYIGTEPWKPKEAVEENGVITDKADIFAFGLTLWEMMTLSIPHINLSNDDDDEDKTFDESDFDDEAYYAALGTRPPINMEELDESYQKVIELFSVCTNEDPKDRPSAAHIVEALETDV
UniProt Q15118, whole entry, looked up: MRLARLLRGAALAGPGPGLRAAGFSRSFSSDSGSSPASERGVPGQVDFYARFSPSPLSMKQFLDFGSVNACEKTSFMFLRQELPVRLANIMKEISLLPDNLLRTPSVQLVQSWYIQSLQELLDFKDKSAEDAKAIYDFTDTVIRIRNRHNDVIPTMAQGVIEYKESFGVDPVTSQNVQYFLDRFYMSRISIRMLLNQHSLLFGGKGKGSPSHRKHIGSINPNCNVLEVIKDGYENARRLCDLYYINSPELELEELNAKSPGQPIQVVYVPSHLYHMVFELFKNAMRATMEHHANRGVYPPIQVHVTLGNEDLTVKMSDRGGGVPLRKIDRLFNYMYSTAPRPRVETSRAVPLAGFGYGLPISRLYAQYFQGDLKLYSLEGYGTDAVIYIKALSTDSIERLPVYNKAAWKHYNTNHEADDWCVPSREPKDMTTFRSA
UniProt P09619, whole entry: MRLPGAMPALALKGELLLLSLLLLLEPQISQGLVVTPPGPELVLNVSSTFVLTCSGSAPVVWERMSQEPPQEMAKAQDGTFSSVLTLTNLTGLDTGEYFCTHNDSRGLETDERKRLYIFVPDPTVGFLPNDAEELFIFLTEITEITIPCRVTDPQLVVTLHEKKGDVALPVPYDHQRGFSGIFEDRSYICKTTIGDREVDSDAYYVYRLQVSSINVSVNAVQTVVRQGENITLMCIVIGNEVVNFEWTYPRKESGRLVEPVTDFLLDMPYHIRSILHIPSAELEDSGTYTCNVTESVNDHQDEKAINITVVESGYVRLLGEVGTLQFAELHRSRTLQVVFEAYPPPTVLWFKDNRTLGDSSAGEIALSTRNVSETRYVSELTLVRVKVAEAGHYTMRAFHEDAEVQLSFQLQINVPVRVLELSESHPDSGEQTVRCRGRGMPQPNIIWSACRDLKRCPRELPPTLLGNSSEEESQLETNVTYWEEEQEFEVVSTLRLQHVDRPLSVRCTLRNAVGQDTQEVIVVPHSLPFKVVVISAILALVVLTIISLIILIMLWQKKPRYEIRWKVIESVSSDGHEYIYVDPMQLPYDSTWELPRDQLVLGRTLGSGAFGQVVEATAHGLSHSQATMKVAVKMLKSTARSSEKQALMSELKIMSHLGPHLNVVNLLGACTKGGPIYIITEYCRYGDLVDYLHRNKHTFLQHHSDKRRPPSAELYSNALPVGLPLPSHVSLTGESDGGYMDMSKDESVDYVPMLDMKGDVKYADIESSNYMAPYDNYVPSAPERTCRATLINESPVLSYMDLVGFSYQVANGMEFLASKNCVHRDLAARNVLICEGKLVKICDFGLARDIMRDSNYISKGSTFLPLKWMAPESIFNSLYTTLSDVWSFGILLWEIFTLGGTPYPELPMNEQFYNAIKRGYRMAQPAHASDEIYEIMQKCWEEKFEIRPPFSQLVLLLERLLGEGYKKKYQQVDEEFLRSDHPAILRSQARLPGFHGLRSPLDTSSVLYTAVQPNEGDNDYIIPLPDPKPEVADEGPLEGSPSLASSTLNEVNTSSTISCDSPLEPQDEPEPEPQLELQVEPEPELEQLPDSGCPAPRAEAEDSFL

Legend:
Test in all cases: kinase-Nluc reporter destabilization hit call (1 = scored as downregulated) (binary); higher = compound decreases kinase abundance
Conditions in all cases: K562; 2-18 h
MAPK1 = MAPK1 (UniProt P28482)
MAPK4 = MAPK4 (UniProt P31152)
MAPKAPK2 = MAPKAPK2 (UniProt P49137)
MKNK1 = MKNK1 (UniProt Q9BUB5)
NTRK2 = NTRK2 (UniProt Q16620)
NTRK3 = NTRK3 (UniProt Q16288)
PAK4 = PAK4 (UniProt O96013)
PBK = PBK (UniProt Q96KB5)
PDK1 = PDK1 (UniProt Q15118)
PDGFRB = PDGFRB (UniProt P09619)

Measured: kinase-Nluc reporter destabilization hit call

COc1cc2c(Nc3ccc(Br)cc3F)ncnc2cc1OCCn1ccnn1 (10 µM)
inactive: MAPK1 = 0 | MAPK4 = 0 | MAPKAPK2 = 0 | MKNK1 = 0 | NTRK2 = 0 | NTRK3 = 0 | PAK4 = 0 | PBK 0 | PDK1 = 0

Cn1c(=O)n(-c2ccc(C(C)(C)C#N)cc2)c2c3cc(-c4cnc5ccccc5c4)ccc3ncc21 [Dactolisib (Tosylate)] (10 µM)
inactive: MAPK1 = 0 | MAPK4 = 0 | MAPKAPK2 = 0 | MKNK1 = 0 | NTRK2 = 0 | NTRK3 = 0 | PAK4 = 0 | PBK 0 | PDK1 = 0

CC#CC(=O)N[C@H]1CCCN(c2c(F)cc(C(N)=O)c3[nH]c(C)c(C)c23)C1 [Branebrutinib] (10 µM)
inactive: MAPK1 = 0 | MAPK4 = 0 | MAPKAPK2 = 0 | MKNK1 = 0 | NTRK2 = 0 | NTRK3 = 0 | PAK4 = 0 | PBK 0 | PDGFRB 0 | PDK1 = 0

CN1CCN(c2ccc(C(=O)Nc3n[nH]c4ccc(Cc5cc(F)cc(F)c5)cc34)c(NC3CCOCC3)c2)CC1 [Entrectinib] (2.5 µM)
inactive: MAPK1 = 0 | MAPK4 = 0 | MAPKAPK2 = 0 | MKNK1 = 0 | NTRK2 = 0 | NTRK3 = 0 | PAK4 = 0 | PBK 0 | PDK1 = 0

COc1ccc(COc2ccc(Cc3cnc(N)nc3N)cc2OC)cc1 (10 µM)
inactive: MAPK1 = 0 | MAPK4 = 0 | MAPKAPK2 = 0 | MKNK1 = 0 | NTRK2 = 0 | PAK4 = 0 | PBK 0 | PDGFRB 0 | PDK1 = 0

N#C/C(=C\c1ccc(O)c(O)c1)C(=O)NCc1ccccc1 (10 µM)
inactive: MAPK1 = 0 | MAPK4 = 0 | MAPKAPK2 = 0 | MKNK1 = 0 | NTRK2 = 0 | NTRK3 = 0 | PAK4 = 0 | PBK 0 | PDGFRB 0 | PDK1 = 0

Retrieved by structure from the entries so far, 2 records:
Cn1c(=O)n(-c2ccc(C(C)(C)C#N)cc2)c2c3cc(-c4cnc5ccccc5c4)ccc3ncc21 [Dactolisib (Tosylate)] (10 µM)
inactive: MAPK1 = 0 | MAPK4 = 0 | MAPKAPK2 = 0 | MKNK1 = 0 | NTRK2 = 0 | NTRK3 = 0 | PAK4 = 0 | PBK 0 | PDK1 = 0

CC#CC(=O)N[C@H]1CCCN(c2c(F)cc(C(N)=O)c3[nH]c(C)c(C)c23)C1 [Branebrutinib] (10 µM)
inactive: MAPK1 = 0 | MAPK4 = 0 | MAPKAPK2 = 0 | MKNK1 = 0 | NTRK2 = 0 | NTRK3 = 0 | PAK4 = 0 | PBK 0 | PDGFRB 0 | PDK1 = 0

Additional structures.

CNC(=O)c1cccc2cc(Oc3ccnc4cc(OCC5(N)CC5)c(OC)cc34)ccc12 [Lucitanib] (10 µM)
inactive: MAPK1 = 0 | MAPK4 = 0 | MAPKAPK2 = 0 | MKNK1 = 0 | NTRK2 = 0 | NTRK3 = 0 | PAK4 = 0 | PBK 0 | PDGFRB 0 | PDK1 = 0

CN(c1ncccc1CNc1nc(Nc2ccc3c(c2)CC(=O)N3)ncc1C(F)(F)F)S(C)(=O)=O (2.5 µM)
inactive: MAPK1 = 0 | MAPK4 = 0 | MAPKAPK2 = 0 | MKNK1 = 0 | NTRK2 = 0 | NTRK3 = 0 | PAK4 = 0 | PBK 0 | PDK1 = 0

CC(C)(C)c1cc(NC(=O)Nc2ccc(-c3cn4c(n3)sc3cc(OCCN5CCOCC5)ccc34)cc2)no1 [Quizartinib] (10 µM)
active: PDGFRB 1
inactive: MAPK1 = 0 | MAPK4 = 0 | MAPKAPK2 = 0 | MKNK1 = 0 | PAK4 = 0 | PBK 0 | PDK1 = 0

COc1c(CC=C(C)C)c(O)cc2oc(=O)c(-c3ccc(O)cc3O)cc12 [Glycycoumarin] (10 µM)
inactive: MAPK1 = 0 | MAPK4 = 0 | MAPKAPK2 = 0 | MKNK1 = 0 | NTRK2 = 0 | NTRK3 = 0 | PAK4 = 0 | PBK 0 | PDGFRB 0 | PDK1 = 0

COc1cc(OC)cc(-c2cc3cnc(N)nc3nc2NC(=O)NC(C)(C)C)c1 (10 µM)
inactive: MAPK1 = 0 | MAPK4 = 0 | MAPKAPK2 = 0 | MKNK1 = 0 | NTRK2 = 0 | NTRK3 = 0 | PAK4 = 0 | PBK 0 | PDK1 = 0

Cc1cccc([C@@H](CO)NC(=O)[C@@H](C)N2Cc3ccc(-c4nc(NC5CCOCC5)ncc4Cl)cc3C2=O)c1 [ERK1/2 inhibitor 1] (10 µM)
inactive: MAPK4 = 0 | MAPKAPK2 = 0 | MKNK1 = 0 | NTRK2 = 0 | NTRK3 = 0 | PAK4 = 0 | PBK 0 | PDGFRB 0 | PDK1 = 0

Cc1ccc(S(=O)(=O)Nc2nc3ccccc3nc2Nc2ccc3nsnc3c2)cc1 [Pilaralisib analogue] (10 µM)
inactive: MAPK1 = 0 | MAPK4 = 0 | MAPKAPK2 = 0 | NTRK2 = 0 | NTRK3 = 0 | PAK4 = 0 | PBK 0 | PDGFRB 0 | PDK1 = 0

CCN(CCCOc1ccc2c(Nc3cc(CC(=O)Nc4cccc(F)c4)[nH]n3)ncnc2c1)CCOP(=O)(O)O [Barasertib] (10 µM)
inactive: MAPK1 = 0 | MAPK4 = 0 | MAPKAPK2 = 0 | MKNK1 = 0 | NTRK2 = 0 | NTRK3 = 0 | PAK4 = 0 | PBK 0 | PDK1 = 0

CN1CCN(C2CCN(C(=O)Nc3cc(Oc4ccc(NC(=O)C5(C(=O)Nc6ccc(F)cc6)CC5)c(F)c4)ccn3)CC2)CC1 [Golvatinib] (2.5 µM)
inactive: MAPK1 = 0 | MAPK4 = 0 | MAPKAPK2 = 0 | MKNK1 = 0 | NTRK3 = 0 | PAK4 = 0 | PBK 0 | PDGFRB 0 | PDK1 = 0

N#CC(=Cc1ccc(O)c(O)c1)C(=O)NCc1ccccc1 (mixture of isomers) (10 µM)
inactive: MAPK1 = 0 | MAPK4 = 0 | MAPKAPK2 = 0 | MKNK1 = 0 | NTRK2 = 0 | NTRK3 = 0 | PAK4 = 0 | PBK 0 | PDGFRB 0 | PDK1 = 0

C=CC(=O)N1C[C@H](Nc2ncnc3[nH]ccc23)CC[C@@H]1C [Ritlecitinib] (10 µM)
inactive: MAPK1 = 0 | MAPK4 = 0 | MAPKAPK2 = 0 | MKNK1 = 0 | NTRK2 = 0 | NTRK3 = 0 | PAK4 = 0 | PBK 0 | PDGFRB 0 | PDK1 = 0

Cc1ccc2c(Nc3cccc(OC(F)(F)F)c3)nccc2c1Nc1ncccc1-c1ncnc2[nH]cnc12 (10 µM)
inactive: MAPK1 = 0 | MAPK4 = 0 | MAPKAPK2 = 0 | MKNK1 = 0 | NTRK2 = 0 | NTRK3 = 0 | PAK4 = 0 | PBK 0 | PDK1 = 0

Cc1c(Cn2c(C)nc3c(C(=O)O)cc(N4CCOCC4)cc32)cccc1C(F)(F)F (10 µM)
inactive: MAPK1 = 0 | MAPK4 = 0 | MKNK1 = 0 | NTRK2 = 0 | NTRK3 = 0 | PAK4 = 0 | PBK 0 | PDGFRB 0

CC(=O)NCC(=O)N1[C@@H]2CC[C@H]1c1ccc(Nc3ncc(C(F)(F)F)c(NC4CCC4)n3)cc12 (2.5 µM)
inactive: MAPK1 = 0 | MAPK4 = 0 | MAPKAPK2 = 0 | MKNK1 = 0 | NTRK2 = 0 | NTRK3 = 0 | PAK4 = 0 | PBK 0 | PDK1 = 0

CNC(=O)c1cc(Oc2ccc(NC(=O)Nc3cc(C(C)(C)C)nn3-c3ccc4ncccc4c3)c(F)c2)ccn1 [Rebastinib] (2.5 µM)
inactive: MAPK1 = 0 | MAPK4 = 0 | MAPKAPK2 = 0 | MKNK1 = 0 | NTRK3 = 0 | PAK4 = 0 | PBK 0 | PDGFRB 0 | PDK1 = 0

Cc1ccc(F)c(NC(=O)Nc2ccc(-c3cccc4[nH]nc(N)c34)cc2)c1 [Linifanib] (2.5 µM)
inactive: MAPK1 = 0 | MAPK4 = 0 | MAPKAPK2 = 0 | MKNK1 = 0 | NTRK2 = 0 | PAK4 = 0 | PBK 0 | PDGFRB 0 | PDK1 = 0

CC(C)(C)c1nc2c3cc[nH]c(=O)c3c3cc(F)ccc3c2[nH]1 [Pyridone 6] (10 µM)
inactive: MAPK1 = 0 | MAPK4 = 0 | MAPKAPK2 = 0 | MKNK1 = 0 | NTRK2 = 0 | NTRK3 = 0 | PAK4 = 0 | PBK 0 | PDK1 = 0

CC(C)(C)S(=O)(=O)c1cc2c(Nc3ccc4scnc4c3)ncnc2cc1OCCO (2.5 µM)
inactive: MAPK1 = 0 | MAPK4 = 0 | MAPKAPK2 = 0 | MKNK1 = 0 | NTRK2 = 0 | NTRK3 = 0 | PAK4 = 0 | PBK 0 | PDGFRB 0 | PDK1 = 0

CCCS(=O)(=O)Nc1ccc(F)c(C(=O)c2c[nH]c3ncc(Cl)cc23)c1F (10 µM)
inactive: MAPK1 = 0 | MAPK4 = 0 | MAPKAPK2 = 0 | MKNK1 = 0 | NTRK2 = 0 | NTRK3 = 0 | PAK4 = 0 | PBK 0 | PDGFRB 0 | PDK1 = 0

O=c1oc2c(O)c(O)cc3c(=O)oc4c(O)c(O)cc1c4c23 [Ellagic acid] (10 µM)
inactive: MAPK1 = 0 | MAPK4 = 0 | MAPKAPK2 = 0 | MKNK1 = 0 | NTRK2 = 0 | NTRK3 = 0 | PAK4 = 0 | PBK 0 | PDK1 = 0

O=C1NCCc2[nH]c(-c3ccnc(-c4cnc5ccccc5c4)c3)cc21 (10 µM)
inactive: MAPK1 = 0 | MAPK4 = 0 | MKNK1 = 0 | NTRK2 = 0 | NTRK3 = 0 | PAK4 = 0 | PBK 0 | PDGFRB 0 | PDK1 = 0

Cc1c[nH]c2ccccc12 [Skatole] (10 µM)
inactive: MAPK1 = 0 | MAPK4 = 0 | MAPKAPK2 = 0 | MKNK1 = 0 | NTRK2 = 0 | NTRK3 = 0 | PAK4 = 0 | PBK 0 | PDGFRB 0 | PDK1 = 0
